Data from doi:10.1101/316448.
These are yes or no findings as the source states them, for the method shown. In cells and extracts the contact can be indirect. A result given as binding can be weak or reduced; the word gives no strength. Where a sequence is shown, tags or fusion partners need not be part of it.

By UniProt entry, the sequences of proteins in these tests, tags left out. Where a name states a change or a piece, a line headed by the entry shows the natural chain unless it says otherwise.
UniProt Q24025: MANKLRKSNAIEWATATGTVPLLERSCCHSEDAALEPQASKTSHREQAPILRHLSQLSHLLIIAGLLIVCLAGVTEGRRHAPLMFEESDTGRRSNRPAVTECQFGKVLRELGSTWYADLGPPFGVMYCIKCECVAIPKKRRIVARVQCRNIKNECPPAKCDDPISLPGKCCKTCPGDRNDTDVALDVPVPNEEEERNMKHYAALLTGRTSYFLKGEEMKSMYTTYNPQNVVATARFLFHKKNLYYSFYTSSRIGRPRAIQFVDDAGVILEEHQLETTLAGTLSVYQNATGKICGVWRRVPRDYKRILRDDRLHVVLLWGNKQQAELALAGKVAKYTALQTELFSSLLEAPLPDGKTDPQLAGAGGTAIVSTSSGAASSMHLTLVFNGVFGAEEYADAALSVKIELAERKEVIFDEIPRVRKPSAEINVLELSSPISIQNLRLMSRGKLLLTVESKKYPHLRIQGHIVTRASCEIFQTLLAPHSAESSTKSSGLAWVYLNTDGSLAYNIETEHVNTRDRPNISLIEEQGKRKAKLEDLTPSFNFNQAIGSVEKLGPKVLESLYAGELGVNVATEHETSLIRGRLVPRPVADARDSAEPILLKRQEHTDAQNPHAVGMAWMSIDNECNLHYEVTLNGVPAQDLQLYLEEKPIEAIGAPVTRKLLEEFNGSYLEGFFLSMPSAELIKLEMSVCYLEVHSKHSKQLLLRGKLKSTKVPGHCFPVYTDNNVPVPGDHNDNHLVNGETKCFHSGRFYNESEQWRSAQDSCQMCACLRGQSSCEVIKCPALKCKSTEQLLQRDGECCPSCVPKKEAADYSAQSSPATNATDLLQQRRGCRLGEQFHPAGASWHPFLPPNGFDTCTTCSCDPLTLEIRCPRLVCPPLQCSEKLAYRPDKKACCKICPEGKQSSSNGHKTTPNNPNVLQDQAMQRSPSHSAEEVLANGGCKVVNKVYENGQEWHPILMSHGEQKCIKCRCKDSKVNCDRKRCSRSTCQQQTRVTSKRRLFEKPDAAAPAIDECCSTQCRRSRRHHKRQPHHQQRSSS

Legend:
Assay in all cases: co-IP
[1] = biological target: SogN123-V5/His (Sog triple glycosylation mutant) (Drosophila melanogaster) (UniProt Q24025)
[2] = biological target: N-terminal Supersog fragment of Sog (Drosophila melanogaster)
[3] = biological target: SogN1-V5/His (Drosophila melanogaster) (UniProt Q24025)

Measured: binding

B1: Dpp-HA (Decapentaplegic) homodimer (ligand, UniProt P07713 457-588)
chain: DVSGGEGGGKGGRNKRQPRRPTRRKNHDDTCRRHSLYVDFSDVGWDDWIVAPLGYDAYYCHGKCPFPLADHFNSTNHAVVQTLVNNMNPGKVPKACCVPTQLDSVAMLYLNDQSTVVLKNYQEMTVVGCGCR
binds: [1] | [2] | [3]
